Two molecules from patent US20110158908A1, “CYCLOSPORIN A-BINDING PROTEIN” (Sapporo Medical University, priority 2007, published 2011) can be followed below.

Sequences of proteins named here, by UniProt entry; tags and fusion partners are left off. Residues count along the entry.
UniProt P23284, residues 34-216: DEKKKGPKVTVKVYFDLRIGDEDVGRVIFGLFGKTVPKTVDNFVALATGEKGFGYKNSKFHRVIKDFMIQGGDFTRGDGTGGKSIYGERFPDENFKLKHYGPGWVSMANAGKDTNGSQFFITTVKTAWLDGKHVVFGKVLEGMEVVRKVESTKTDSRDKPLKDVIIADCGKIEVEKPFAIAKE

No constants are given. Whether binding was seen depends on the method and setting. For some of these results: Binding seen in cells or lysates may run through a third protein. Some results given as binding are weak or reduced against the parent protein; the word gives no strength. For some of these results: Tags and fused reporters may be left off the sequences shown.

The target in assay [1] is cyclophilin B (CyPB) (UniProt P23284). The experiment in a line: GST pull-down of 35S-labelled in vitro synthesized CyPB with GST-CSABP on glutathione Sepharose, CsA added to the co-culture, SDS-PAGE, autoradiography.
For assay [2] the target is unchanged. The experiment in a line: GST pull-down (recap of the in vitro experiment).
Assay [3] shares this target. Kind of assay: GST pull-down with glutathione Sepharose, 35S-labeled in vitro synthesized protein, autoradiography.
For assay [4] the target is unchanged. Kind of assay: co-precipitation from MH14 cell lysate with polyU Sepharose, western blot.

B1: CSABP-GST fusion protein (protein, not shown: a dimerising Fc or GST)
chain: MSRPSSVSPRQPAPGGGGGGGPSPCGPGGGGRAKGLKDIRIDEEVKIAVNIALERFRYGDQREMEFPSSLTSTERAFIHRLSQSLGLVSKSKGKGANRYLTVKKKDGSETAHAMMTCNLTHNTKHAVRSLIQRFPVTNKERTELLPKTERGNVFAVEAENREMSKTSGRLNNGIPQIPVKRGESEFDSFRQSLPVFEKQEEIVKIIKENKVVLIVGETGSGKTTQIPQFLLDDCFKNGIPCRIFCTQPRRLAAIAVAERVAAERRERIGQTIGYQIRLESRVSPKTLLTFCTNGVLLRTLMAGDSTLSTVTHVIVDEVHERDRFSDFLLTKLRDLLQKHPTLKLILSSAALDVNLFIRYFGSCPVIYIQGRPFEVKEMFLEDILRTTGYTNKEMLKYKKEKQQEEKQQTTLTEWYSAQENSFKPESQRQRTVLNVTDEYDLLDDGGDAVFSQLTEKDVNCLEPWLIKEMDACLSDIWLHKDIDAFAQVFHLILTENVSVDYRHSETSATALMVAAGRGFASQVEQLISMGANVHSKASNGWMALDWAKHFGQTEIVDLLESYSASLEFGNLDESSLVQTNGSDLSAEDRELLKAYHHSFDDEKVDLDLIMHLLYNICHSCDAGAVLIFLPGYDEIVGLRDRILFDDKRFADNTHRYQVFMLHSNMQTSDQKKVLKNPPAGVRKIILSTNIAETSITVNDVVFVIDSGKVKEKSFDALNFVTMLKMVWISKASAIQRKGRAGRCRPGICFRLFSRLRFQNMLEFQTPELLRMPLQELCLHTKLLAPVNCPIADFLMKAPEPPPALIVRNAVQMLKTIDAMDTWEDLTELGYHLADLPVEPHLGKMVLCAVVLKCLDPILTIACTLAYRDPFVLPTQASQKRAAMLCRKRFTAGAFSDHMALLRAFQAWQKARSDGWERAFCEKNFLSQATMEIIIGMRTQLLGQLRASGFVRARGGGDIRDVNTNSENWAVVKAALVAGMYPNLVHVDRENLVLTGPKEKKVRFHPASVLSQPQYKKIPPANGQAAAIKALPTDWLIYDEMTRAHRIANIRCCSAVTPVTILVFCGPARLASNALQEPSSFRVDGIPNDSSDSEMEDKTTANLAALKLDEWLHFTLEPEAASLLLQLRQKWHSLFLRRMRAPSKPWSQVDEATIRAIIAVLSTEEQSAGLQQPSGIGQRPRPMSSEELPLASSWRSNNSRKSSADTEFSDECTTAERVLMKSPSPALHPPQKYKDRGILHPKRGTEDRSDQSSLKSTDSSSYPSPCASPSPPSSGKGSKSPSPRPNMPVRYFIMKSSNLRNLEISQQKGIWSTTPSNERKLNRAFWESSIVYLVFSVQGSGHFQGFSRMSSEIGREKSQDWGSAGLGGVFKVEWIRKESLPFQFAHHLLNPWNDNKKVQISRDGQELEPLVGEQLLQLWERLPLGEKNTTD
Turning to B1, the binding entry in assay [1], in assay [2] and in assay [3] was “binds” in each case.

B2: CSABP (cyclosporin A-binding protein), endogenous in MH14 cells (enzyme)
chain: MSRPSSVSPRQPAPGGGGGGGPSPCGPGGGGRAKGLKDIRIDEEVKIAVNIALERFRYGDQREMEFPSSLTSTERAFIHRLSQSLGLVSKSKGKGANRYLTVKKKDGSETAHAMMTCNLTHNTKHAVRSLIQRFPVTNKERTELLPKTERGNVFAVEAENREMSKTSGRLNNGIPQIPVKRGESEFDSFRQSLPVFEKQEEIVKIIKENKVVLIVGETGSGKTTQIPQFLLDDCFKNGIPCRIFCTQPRRLAAIAVAERVAAERRERIGQTIGYQIRLESRVSPKTLLTFCTNGVLLRTLMAGDSTLSTVTHVIVDEVHERDRFSDFLLTKLRDLLQKHPTLKLILSSAALDVNLFIRYFGSCPVIYIQGRPFEVKEMFLEDILRTTGYTNKEMLKYKKEKQQEEKQQTTLTEWYSAQENSFKPESQRQRTVLNVTDEYDLLDDGGDAVFSQLTEKDVNCLEPWLIKEMDACLSDIWLHKDIDAFAQVFHLILTENVSVDYRHSETSATALMVAAGRGFASQVEQLISMGANVHSKASNGWMALDWAKHFGQTEIVDLLESYSASLEFGNLDESSLVQTNGSDLSAEDRELLKAYHHSFDDEKVDLDLIMHLLYNICHSCDAGAVLIFLPGYDEIVGLRDRILFDDKRFADNTHRYQVFMLHSNMQTSDQKKVLKNPPAGVRKIILSTNIAETSITVNDVVFVIDSGKVKEKSFDALNFVTMLKMVWISKASAIQRKGRAGRCRPGICFRLFSRLRFQNMLEFQTPELLRMPLQELCLHTKLLAPVNCPIADFLMKAPEPPPALIVRNAVQMLKTIDAMDTWEDLTELGYHLADLPVEPHLGKMVLCAVVLKCLDPILTIACTLAYRDPFVLPTQASQKRAAMLCRKRFTAGAFSDHMALLRAFQAWQKARSDGWERAFCEKNFLSQATMEIIIGMRTQLLGQLRASGFVRARGGGDIRDVNTNSENWAVVKAALVAGMYPNLVHVDRENLVLTGPKEKKVRFHPASVLSQPQYKKIPPANGQAAAIKALPTDWLIYDEMTRAHRIANIRCCSAVTPVTILVFCGPARLASNALQEPSSFRVDGIPNDSSDSEMEDKTTANLAALKLDEWLHFTLEPEAASLLLQLRQKWHSLFLRRMRAPSKPWSQVDEATIRAIIAVLSTEEQSAGLQQPSGIGQRPRPMSSEELPLASSWRSNNSRKSSADTEFSDECTTAERVLMKSPSPALHPPQKYKDRGILHPKRGTEDRSDQSSLKSTDSSSYPSPCASPSPPSSGKGSKSPSPRPNMPVRYFIMKSSNLRNLEISQQKGIWSTTPSNERKLNRAFWESSIVYLVFSVQGSGHFQGFSRMSSEIGREKSQDWGSAGLGGVFKVEWIRKESLPFQFAHHLLNPWNDNKKVQISRDGQELEPLVGEQLLQLWERLPLGEKNTTD
As to B2, the binding result in assay [4] was “binds”.
